The other results are listed elsewhere or left out.
compound: CC1=C(C=C(C=C1)NC(=O)C2=CC(=CC=C2)C(C)(C)C#N)NC3=CC4=C(C=C3)N=CN(C4=O)C; test: log2 fold change, soluble protein after heating vs DMSO (PISA); higher = thermal stabilisation; K562 cells, 10 uM, 30 min; active = over 0.2 and 3.5 SD of the protein, either way, in both replicates (recomputed)
How it was run: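 Soluble protein was quantified by TMTpro 16plex LC-MS/MS after channel sums were equalised. It was obtained as the supernatant after 21,000xg for 90 min from pooled aliquots of K562 cells (2×10^6 cells/mL, 10 μM compound, 30 min) heated for 3 min across 48°C-58°C and extracted in PBS with 0.5% NP-40 at 4°C. Thermal stability values are relative to control samples and come from duplicates. They are given as log2 fold changes.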

Sequences of proteins named here, by UniProt entry; tags and fusion partners are left off. A change or cut given only in a name is not applied to a line headed by its entry.
UniProt Q8TCT7: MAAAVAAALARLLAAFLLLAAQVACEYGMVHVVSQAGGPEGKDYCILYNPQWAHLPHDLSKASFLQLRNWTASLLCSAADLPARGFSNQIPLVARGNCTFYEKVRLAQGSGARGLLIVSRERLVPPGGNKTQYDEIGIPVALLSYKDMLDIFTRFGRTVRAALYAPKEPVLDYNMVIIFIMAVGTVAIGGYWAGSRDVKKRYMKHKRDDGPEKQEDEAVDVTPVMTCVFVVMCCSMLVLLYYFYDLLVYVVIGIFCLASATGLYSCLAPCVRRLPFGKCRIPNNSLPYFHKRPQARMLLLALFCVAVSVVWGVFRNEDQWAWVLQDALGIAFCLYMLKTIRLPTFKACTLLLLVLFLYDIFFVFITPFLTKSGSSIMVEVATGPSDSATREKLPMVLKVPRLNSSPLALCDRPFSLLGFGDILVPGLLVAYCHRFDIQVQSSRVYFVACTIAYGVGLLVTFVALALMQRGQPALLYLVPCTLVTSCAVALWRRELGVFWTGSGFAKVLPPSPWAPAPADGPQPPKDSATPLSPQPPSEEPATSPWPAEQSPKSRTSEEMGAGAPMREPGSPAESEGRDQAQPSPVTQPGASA
UniProt P84103: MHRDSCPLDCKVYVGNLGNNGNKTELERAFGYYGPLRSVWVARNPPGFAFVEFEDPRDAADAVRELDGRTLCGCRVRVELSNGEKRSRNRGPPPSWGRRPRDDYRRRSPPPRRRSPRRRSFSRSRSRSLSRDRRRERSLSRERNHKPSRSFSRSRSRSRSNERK
UniProt P10124: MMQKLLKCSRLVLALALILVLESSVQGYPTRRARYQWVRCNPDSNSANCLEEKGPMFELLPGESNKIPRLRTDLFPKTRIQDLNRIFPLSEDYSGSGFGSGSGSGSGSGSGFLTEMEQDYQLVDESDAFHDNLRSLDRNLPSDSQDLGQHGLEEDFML
UniProt O00506, whole entry, looked up: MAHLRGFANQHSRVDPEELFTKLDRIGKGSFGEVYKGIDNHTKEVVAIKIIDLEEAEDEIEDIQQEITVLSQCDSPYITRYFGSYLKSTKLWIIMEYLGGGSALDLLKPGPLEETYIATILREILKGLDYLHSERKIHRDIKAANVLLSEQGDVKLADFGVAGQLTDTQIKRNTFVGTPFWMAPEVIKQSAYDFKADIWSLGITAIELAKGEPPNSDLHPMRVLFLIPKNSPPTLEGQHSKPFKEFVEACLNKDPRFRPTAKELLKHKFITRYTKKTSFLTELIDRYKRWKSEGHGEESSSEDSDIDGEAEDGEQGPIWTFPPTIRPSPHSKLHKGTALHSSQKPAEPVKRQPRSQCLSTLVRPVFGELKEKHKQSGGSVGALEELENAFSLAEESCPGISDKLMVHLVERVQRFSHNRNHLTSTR
UniProt Q9NYA1, whole entry, looked up: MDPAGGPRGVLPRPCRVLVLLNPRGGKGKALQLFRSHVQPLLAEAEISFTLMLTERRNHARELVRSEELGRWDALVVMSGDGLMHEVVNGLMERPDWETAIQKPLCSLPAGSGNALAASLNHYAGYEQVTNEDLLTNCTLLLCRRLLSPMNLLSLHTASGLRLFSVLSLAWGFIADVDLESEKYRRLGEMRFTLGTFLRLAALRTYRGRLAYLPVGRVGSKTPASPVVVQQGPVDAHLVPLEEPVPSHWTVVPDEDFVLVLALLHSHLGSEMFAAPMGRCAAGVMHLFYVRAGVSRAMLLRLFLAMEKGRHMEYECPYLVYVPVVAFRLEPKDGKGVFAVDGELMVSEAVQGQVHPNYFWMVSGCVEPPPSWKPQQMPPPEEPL
UniProt Q9UQ90: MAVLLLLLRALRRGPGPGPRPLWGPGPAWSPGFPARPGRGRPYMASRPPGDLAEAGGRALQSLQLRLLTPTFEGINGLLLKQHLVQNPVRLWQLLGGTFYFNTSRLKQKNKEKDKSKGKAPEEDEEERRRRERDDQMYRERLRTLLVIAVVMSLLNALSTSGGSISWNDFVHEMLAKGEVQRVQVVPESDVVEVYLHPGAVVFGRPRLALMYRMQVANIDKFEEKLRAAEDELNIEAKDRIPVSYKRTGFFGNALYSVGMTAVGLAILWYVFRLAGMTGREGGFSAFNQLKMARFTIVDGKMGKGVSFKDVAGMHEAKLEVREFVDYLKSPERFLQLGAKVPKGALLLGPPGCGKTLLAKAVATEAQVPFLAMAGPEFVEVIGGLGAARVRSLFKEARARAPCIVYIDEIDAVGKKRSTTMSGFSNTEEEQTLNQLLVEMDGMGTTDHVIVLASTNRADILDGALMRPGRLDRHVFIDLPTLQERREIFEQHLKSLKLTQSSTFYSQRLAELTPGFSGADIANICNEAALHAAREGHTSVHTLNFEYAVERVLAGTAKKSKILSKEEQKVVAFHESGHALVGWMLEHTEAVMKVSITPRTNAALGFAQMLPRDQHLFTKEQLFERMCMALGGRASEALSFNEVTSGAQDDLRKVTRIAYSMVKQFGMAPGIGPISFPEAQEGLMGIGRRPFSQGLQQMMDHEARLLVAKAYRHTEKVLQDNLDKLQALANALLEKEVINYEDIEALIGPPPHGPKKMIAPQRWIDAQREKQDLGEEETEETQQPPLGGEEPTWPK
UniProt Q8TCT8: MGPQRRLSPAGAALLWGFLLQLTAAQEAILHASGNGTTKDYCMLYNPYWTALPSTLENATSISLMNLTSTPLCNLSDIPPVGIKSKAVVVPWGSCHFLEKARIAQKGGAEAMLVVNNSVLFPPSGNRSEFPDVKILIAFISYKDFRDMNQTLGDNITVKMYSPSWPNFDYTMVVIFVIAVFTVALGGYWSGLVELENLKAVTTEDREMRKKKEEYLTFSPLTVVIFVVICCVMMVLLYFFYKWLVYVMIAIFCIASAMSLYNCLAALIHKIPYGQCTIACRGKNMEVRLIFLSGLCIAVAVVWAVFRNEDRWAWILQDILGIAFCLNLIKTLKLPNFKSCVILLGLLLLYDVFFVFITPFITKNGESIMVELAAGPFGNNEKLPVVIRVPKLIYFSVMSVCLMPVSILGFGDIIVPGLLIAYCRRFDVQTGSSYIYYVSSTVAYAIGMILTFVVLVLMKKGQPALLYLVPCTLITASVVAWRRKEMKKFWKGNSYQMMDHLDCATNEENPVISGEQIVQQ
UniProt Q9UHB9: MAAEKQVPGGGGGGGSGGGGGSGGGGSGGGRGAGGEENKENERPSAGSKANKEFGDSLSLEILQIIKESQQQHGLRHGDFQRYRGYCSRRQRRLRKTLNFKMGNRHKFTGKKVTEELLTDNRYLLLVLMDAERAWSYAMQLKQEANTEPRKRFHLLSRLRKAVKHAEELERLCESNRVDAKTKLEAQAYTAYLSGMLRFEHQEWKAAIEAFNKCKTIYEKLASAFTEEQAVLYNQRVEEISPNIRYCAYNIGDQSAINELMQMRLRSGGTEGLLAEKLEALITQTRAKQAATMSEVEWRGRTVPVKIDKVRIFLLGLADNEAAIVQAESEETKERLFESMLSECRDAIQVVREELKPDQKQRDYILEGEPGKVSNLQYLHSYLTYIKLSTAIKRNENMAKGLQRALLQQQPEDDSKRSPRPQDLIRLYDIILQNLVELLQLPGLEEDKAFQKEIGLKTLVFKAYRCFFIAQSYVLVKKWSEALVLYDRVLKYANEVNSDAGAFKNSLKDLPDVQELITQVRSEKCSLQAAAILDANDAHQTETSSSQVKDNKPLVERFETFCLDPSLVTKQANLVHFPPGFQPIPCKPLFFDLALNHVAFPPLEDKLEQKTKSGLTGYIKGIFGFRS
UniProt Q8NB90: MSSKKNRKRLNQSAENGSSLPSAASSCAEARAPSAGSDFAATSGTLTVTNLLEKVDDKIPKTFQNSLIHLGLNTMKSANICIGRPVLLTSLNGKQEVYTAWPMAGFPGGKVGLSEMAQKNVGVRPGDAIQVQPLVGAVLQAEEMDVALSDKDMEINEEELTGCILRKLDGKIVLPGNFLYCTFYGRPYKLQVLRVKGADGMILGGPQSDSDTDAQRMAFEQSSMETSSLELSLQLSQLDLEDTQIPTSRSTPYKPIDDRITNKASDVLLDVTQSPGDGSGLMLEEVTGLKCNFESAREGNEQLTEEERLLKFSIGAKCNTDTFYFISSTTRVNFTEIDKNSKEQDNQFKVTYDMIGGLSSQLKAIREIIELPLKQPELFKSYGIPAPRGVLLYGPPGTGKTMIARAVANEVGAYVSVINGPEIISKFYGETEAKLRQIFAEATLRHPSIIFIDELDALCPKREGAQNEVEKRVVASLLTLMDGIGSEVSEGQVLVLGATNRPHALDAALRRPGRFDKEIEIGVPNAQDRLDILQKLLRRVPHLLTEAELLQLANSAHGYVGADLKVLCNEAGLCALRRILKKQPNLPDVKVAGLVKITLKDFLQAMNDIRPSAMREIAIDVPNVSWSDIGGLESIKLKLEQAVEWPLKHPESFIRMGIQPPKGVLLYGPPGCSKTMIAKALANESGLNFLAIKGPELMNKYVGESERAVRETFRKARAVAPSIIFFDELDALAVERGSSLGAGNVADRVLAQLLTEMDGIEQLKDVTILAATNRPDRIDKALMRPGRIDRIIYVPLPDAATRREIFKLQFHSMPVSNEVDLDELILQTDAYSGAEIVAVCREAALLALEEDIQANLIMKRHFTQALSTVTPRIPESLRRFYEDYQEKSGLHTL
UniProt Q08945, whole entry, looked up: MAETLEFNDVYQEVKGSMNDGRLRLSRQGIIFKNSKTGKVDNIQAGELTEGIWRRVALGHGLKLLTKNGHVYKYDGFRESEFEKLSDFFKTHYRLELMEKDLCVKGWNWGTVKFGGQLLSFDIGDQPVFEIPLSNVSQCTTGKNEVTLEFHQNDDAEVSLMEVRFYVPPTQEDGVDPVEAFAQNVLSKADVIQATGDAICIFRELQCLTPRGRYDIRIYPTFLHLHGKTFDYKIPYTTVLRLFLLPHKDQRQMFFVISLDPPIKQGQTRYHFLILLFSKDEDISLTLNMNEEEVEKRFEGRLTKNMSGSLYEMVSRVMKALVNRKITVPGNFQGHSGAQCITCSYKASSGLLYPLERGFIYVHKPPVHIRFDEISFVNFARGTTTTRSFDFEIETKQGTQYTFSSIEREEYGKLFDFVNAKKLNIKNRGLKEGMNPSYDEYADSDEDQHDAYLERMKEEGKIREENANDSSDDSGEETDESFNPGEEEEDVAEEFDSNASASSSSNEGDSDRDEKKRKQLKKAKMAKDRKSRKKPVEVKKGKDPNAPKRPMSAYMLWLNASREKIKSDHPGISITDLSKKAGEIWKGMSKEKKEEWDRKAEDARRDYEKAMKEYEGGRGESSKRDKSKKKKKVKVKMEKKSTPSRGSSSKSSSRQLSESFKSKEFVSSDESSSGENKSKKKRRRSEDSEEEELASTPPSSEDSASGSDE
UniProt Q15831: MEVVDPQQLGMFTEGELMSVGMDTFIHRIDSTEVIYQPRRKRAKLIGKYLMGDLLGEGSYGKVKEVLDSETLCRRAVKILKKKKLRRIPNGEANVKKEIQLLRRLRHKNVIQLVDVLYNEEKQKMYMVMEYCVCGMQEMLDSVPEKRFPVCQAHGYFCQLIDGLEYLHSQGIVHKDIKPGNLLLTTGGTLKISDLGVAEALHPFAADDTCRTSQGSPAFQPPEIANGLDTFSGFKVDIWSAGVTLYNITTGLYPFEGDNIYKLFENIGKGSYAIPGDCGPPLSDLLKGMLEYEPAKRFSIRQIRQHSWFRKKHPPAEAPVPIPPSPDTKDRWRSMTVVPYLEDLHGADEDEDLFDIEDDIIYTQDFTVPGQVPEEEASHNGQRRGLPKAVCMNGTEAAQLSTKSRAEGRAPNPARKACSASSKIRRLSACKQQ
UniProt Q01130: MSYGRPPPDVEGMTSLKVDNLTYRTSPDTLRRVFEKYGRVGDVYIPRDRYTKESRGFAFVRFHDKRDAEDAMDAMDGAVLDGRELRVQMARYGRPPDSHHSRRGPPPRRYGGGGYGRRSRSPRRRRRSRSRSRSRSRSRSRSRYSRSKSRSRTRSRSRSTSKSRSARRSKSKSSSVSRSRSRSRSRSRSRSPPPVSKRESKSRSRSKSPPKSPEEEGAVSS
UniProt Q9NRC1: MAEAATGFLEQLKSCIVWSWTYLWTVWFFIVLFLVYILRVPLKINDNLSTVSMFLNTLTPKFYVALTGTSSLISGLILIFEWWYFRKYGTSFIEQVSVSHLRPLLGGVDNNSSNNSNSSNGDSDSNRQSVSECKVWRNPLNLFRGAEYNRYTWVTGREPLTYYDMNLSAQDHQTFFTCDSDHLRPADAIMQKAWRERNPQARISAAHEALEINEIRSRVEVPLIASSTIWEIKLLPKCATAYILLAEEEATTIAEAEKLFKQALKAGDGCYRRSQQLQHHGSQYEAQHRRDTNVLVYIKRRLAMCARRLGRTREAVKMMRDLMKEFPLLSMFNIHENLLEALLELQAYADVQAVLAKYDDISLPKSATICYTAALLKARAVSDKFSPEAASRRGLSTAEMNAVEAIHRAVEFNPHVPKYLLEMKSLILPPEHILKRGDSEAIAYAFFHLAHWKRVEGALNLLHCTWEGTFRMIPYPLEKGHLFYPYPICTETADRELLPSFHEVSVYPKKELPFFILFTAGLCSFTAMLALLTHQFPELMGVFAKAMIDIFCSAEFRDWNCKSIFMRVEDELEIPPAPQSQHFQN

Target | log2 fold change
SPPL2B (UniProt Q8TCT7) | inactive: -0.097
SRSF3 (UniProt P84103) | inactive: -0.019
SRGAP2 (UniProt O75044) | inactive: 0.016
SRGN (UniProt P10124) | inactive: 0.124
SSR1 (UniProt P43307) | inactive: -0.021
SPART (UniProt Q8N0X7) | inactive: 0.007
SRSF11 (UniProt Q05519) | inactive: -0.029
STIM1 (UniProt Q13586) | inactive: 0.014
SRSF7 (UniProt Q16629) | inactive: 0
STK25 (UniProt O00506) | inactive: -0.102
SPHK1 isoform 2 (UniProt Q9NYA1) | inactive: -0.028
SPG7 (UniProt Q9UQ90) | inactive: -0.021
SPTA1 (UniProt P02549) | inactive: -0.019
SPPL2A (UniProt Q8TCT8) | inactive: -0.088
STAT1 (UniProt P42224) | inactive: 0.028
SRP68 (UniProt Q9UHB9) | inactive: 0.028
SSNA1 (UniProt O43805) | inactive: 0.024
STAT5B (UniProt P51692) | inactive: -0.165
STAU1 (UniProt O95793) | inactive: 0.004
SPATA5 (UniProt Q8NB90) | inactive: -0.031

Nothing new here: entries from further up.
Target | log2 fold change
STAT1 (UniProt P42224) | inactive: 0.028
SRP68 (UniProt Q9UHB9) | inactive: 0.028
SSNA1 (UniProt O43805) | inactive: 0.024

(further entries)

Target | log2 fold change
SSRP1 (UniProt Q08945) | inactive: -0.072
ST6GAL1 (UniProt P15907) | inactive: 0.025
SSX2 (UniProt Q16385) | inactive: 0.021
STAM (UniProt Q92783) | inactive: -0.066
SQSTM1 (UniProt Q13501) | inactive: 0.04
STK11 (UniProt Q15831) | inactive: -0.075
STARD3 (UniProt Q14849) | inactive: 0.103
SPINDOC (UniProt Q9BUA3) | inactive: 0.157
ST3GAL2 (UniProt Q16842) | inactive: 0.064
SPCS1, A0A5F9YFS9 | inactive: -0.072
SRPRA (UniProt P08240) | inactive: 0.089
SPTBN2 (UniProt O15020) | inactive: 0.036
SRSF2 (UniProt Q01130) | inactive: -0.023
SRM (UniProt P19623) | inactive: 0.015
SREK1 isoform 2 (UniProt Q8WXA9) | inactive: -0.335
SSH2 (UniProt Q76I76) | inactive: -0.04
SRP72 (UniProt O76094) | inactive: 0.024
SRP54 (UniProt P61011) | inactive: 0.046
ST7 (UniProt Q9NRC1) | inactive: -0.04
